Assay results from patent US12686701B2, “Substitution of histidine with 2-thiohistidine in bioactive peptides” (University of Vermont and State Agricultural College, priority 2021, dated 2026).
At least one compound was matched to its structure with a doubt left.

Experiment: Hydroxyl radical scavenging activity by room temperature EPR (Fenton reaction, DMPO spin trap)
Type: biochemical
Description: Measurement of hydroxyl radical scavenging activity. Hydroxyl radical scavenging activity of peptides was measured with room temperature EPR spectroscopy according to known methods with some modifications. Hydroxyl radicals were generated by the iron-catalyzed Fenton Haber-Weiss reaction, and the generated hydroxyl radicals were reacted with the nitrone spin trap 5,5-dimethyl-1-pyrroline-N-oxide (DMPO). The resultant DMPO-OH adducts were detectable with EPR spectroscopy. The peptide (1 mM final concentration) was added to a solution containing: 24 mM DMPO, 0.8 mM FeSO4, and 0.8 mM H2O2 in 100 mM potassium phosphate buffer, pH 7.4 in a final reaction volume of 250 μL. This solution was immediately transferred into a 50 μL quartz capillary tube. After 5 min, the EPR spectrum was recorded using a Bruker X-band EPR spectrometer operating at 9.42 GHz. The experimental conditions employed were as follows: magnetic field, 336.5±10 mT; power, 2 mW; modulation amplitude, 2.00 G; time constant, 327.68 ms, modulation frequency, 100 kHz; receiver gain, 30 dB sweep time, 60 s. Trials were performed in triplicate for each peptide. […] The hydroxyl radical scavenging ability was calculated using Equation 3, in which H and H0 are relative peak height of radical signals with and without sample, respectively. […]

Structure (SMILES): O=C1O[C@H]([C@@H](O)CO)C(O)=C1O [Asc, ascorbate, reference compound]
- ability to scavenge ·OH (in words) (1 mM): completely reducing the ·OH
- Hydroxyl Radical RSA (%) (all analytes at 1 mM, potassium phosphate pH 7.4, average of three or more trials): 100%
